Test results from US5972379A, “Liposome composition and method for administering a quinolone” (Sequus Pharmaceuticals, Inc., priority 1998, dated 1999).

Test system: E. coli
Experiment: Minimum inhibitory concentration, broth microdilution (NCCLS M7-A)
Assay type: cell-based
Settings: Escherichia coli, inoculum 5×10^5 CFU/ml
Procedure: As described above, glycinyl-ciprofloxacin was prepared as set forth in Example 2A-2B and tested for antimicrobial activity in vitro, as described in Example 2C. The minimum inhibitory concentration of the drugs against the bacterial strains S. pyrogenes, E. faecalis, S. aureus, E. coli and P. aeruginosa were determined.
Minimum inhibitory concentrations were determined by a broth microdilution technique following the National Committee for Clinical Laboratory Standards guidelines (NCCLS document M7-A, National Committee for Laboratory Standards, Villanova, Pa., 1994 Approved Standard for "Methods for dilution antimicrobial susceptibility tests for bacteria that grow aerobically") with a starting inoculum of 5×10^5 CFU/ml.

For `O=C(O)c1cn(C2CC2)c2cc(N3CCNCC3)c(F)cc2c1=O` [ciprofloxacin, 1-cyclopropyl-6-fluoro-1,4-dihydro-4-oxo-7-(1-piperazinyl)-3-quinoline carboxylic acid], the MIC was less than 0.5 µg/mL.
